Results taken from the supplement of paper PMC10849652.
Some of the results follow.

Amino acid sequences for entries named in this document (tags omitted). A change or cut given only in a name is not applied to a line headed by its entry.
UniProt Q9NRS6: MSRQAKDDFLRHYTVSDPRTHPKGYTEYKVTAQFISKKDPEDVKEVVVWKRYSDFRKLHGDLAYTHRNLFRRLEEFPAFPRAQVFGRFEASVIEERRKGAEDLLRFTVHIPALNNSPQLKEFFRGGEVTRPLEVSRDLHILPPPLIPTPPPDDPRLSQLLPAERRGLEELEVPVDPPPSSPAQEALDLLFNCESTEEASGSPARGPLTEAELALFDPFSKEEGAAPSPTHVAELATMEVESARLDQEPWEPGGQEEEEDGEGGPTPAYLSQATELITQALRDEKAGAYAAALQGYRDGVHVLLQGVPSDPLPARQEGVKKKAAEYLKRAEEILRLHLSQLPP
UniProt Q15796, whole entry, looked up: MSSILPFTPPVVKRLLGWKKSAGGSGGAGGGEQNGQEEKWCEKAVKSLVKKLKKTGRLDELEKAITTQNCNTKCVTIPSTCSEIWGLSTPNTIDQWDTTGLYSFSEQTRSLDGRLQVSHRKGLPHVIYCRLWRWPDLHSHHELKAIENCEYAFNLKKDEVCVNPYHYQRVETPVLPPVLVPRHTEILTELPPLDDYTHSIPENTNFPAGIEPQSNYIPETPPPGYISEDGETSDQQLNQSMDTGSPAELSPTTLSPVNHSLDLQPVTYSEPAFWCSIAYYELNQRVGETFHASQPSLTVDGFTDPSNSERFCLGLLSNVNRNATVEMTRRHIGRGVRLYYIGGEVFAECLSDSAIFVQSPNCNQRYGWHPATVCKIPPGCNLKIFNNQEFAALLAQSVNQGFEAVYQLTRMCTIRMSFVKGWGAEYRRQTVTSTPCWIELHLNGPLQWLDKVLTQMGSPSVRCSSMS
UniProt P62314, whole entry, looked up: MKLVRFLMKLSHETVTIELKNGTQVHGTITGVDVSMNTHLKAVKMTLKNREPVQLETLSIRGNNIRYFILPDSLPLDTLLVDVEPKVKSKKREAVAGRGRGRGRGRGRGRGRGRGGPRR
UniProt Q92536: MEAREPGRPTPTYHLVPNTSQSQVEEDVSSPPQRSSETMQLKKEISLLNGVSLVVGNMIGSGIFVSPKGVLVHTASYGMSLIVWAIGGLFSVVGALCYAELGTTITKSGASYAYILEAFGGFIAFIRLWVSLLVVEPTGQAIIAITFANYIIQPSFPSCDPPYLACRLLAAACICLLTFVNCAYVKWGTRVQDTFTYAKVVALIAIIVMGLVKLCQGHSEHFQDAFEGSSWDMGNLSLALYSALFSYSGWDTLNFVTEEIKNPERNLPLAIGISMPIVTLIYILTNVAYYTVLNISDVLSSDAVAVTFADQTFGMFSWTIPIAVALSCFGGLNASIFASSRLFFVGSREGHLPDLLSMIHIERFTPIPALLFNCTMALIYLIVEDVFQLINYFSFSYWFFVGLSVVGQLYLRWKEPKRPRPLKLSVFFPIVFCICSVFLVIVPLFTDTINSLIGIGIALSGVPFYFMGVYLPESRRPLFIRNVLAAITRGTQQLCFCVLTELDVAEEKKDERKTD
UniProt O95347, whole entry, looked up: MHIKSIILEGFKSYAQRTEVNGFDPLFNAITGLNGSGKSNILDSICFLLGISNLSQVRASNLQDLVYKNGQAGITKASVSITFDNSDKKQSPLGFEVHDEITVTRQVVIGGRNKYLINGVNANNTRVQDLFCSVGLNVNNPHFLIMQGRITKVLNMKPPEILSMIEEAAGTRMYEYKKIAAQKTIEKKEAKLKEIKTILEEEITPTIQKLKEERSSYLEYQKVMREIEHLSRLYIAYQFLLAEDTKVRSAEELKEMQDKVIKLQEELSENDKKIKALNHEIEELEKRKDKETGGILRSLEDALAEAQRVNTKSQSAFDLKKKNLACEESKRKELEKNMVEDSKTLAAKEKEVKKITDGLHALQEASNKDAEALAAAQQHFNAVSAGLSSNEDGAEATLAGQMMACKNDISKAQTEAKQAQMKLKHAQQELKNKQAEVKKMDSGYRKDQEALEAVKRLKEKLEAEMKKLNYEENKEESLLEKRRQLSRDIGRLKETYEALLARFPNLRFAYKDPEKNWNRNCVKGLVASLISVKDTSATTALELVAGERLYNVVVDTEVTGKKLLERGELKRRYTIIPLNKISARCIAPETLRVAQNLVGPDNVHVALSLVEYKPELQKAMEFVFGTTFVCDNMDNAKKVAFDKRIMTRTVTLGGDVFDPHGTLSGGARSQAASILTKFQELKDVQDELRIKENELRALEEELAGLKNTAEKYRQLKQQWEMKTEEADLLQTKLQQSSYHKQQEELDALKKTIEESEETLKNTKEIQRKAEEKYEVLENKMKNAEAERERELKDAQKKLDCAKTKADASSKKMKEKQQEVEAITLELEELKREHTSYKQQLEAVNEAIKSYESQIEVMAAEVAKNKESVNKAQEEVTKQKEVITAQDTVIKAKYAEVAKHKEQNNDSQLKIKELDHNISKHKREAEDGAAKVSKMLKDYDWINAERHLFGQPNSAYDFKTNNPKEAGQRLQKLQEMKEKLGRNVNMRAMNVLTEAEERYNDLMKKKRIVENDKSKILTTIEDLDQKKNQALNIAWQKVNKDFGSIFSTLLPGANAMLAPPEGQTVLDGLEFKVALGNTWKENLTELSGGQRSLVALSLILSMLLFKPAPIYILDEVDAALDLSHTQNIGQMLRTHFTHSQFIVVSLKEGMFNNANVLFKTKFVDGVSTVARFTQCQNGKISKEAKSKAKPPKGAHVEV
UniProt P62306, whole entry, looked up: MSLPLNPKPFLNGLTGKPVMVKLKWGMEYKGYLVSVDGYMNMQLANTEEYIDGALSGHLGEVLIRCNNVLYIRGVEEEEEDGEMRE
UniProt P00441, whole entry, looked up: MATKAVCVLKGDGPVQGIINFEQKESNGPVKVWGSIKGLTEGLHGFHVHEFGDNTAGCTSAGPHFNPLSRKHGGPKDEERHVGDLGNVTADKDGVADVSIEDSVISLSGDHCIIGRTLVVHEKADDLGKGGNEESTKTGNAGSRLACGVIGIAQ
UniProt Q9H4I9: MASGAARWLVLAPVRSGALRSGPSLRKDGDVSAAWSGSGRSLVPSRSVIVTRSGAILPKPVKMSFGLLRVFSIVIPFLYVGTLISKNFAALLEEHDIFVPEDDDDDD
UniProt Q96H20: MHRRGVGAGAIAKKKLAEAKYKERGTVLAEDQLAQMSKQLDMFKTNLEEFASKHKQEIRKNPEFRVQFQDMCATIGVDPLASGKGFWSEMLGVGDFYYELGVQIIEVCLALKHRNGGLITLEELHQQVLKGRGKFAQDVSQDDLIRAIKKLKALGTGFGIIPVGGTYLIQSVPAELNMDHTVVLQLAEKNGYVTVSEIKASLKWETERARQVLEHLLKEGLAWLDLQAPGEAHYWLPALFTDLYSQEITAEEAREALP
UniProt Q96R06: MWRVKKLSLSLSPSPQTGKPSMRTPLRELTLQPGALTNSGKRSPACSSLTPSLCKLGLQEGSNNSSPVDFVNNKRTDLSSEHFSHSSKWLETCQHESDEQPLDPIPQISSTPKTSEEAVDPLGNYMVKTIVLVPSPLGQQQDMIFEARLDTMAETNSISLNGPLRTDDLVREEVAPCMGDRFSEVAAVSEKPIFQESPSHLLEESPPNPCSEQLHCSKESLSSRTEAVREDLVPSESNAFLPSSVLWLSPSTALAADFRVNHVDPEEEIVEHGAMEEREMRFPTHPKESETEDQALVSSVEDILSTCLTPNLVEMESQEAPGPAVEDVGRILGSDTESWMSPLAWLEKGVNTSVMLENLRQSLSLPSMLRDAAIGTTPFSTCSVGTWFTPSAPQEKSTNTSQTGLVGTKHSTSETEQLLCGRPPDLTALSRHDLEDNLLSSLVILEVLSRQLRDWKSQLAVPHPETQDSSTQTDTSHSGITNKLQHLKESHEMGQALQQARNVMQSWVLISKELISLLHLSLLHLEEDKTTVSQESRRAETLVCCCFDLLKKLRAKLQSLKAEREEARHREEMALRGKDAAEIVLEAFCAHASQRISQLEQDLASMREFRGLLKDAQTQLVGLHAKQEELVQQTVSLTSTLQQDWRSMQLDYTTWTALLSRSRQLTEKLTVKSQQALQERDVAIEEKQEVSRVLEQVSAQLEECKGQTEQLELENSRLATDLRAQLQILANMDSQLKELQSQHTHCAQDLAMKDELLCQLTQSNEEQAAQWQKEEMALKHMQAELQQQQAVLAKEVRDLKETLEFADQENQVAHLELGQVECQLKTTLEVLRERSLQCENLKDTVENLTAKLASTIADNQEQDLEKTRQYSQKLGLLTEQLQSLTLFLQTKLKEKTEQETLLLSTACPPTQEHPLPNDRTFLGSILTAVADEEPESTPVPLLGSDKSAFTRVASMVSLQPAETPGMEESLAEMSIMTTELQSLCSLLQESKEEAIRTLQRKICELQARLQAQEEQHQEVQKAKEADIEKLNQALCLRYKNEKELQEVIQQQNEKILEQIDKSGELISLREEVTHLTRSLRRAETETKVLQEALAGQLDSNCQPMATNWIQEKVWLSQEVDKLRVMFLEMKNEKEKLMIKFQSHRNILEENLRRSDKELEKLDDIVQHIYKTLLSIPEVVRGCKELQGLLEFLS
UniProt Q96CW6: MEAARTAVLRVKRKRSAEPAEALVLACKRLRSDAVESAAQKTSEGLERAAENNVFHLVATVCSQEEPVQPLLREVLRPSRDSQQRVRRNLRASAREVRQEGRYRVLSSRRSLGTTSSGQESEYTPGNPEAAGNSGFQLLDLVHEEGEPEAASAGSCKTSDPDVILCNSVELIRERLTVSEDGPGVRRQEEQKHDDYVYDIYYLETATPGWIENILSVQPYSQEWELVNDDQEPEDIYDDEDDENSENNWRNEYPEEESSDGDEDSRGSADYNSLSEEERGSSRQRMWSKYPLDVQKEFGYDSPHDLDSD
UniProt O60641: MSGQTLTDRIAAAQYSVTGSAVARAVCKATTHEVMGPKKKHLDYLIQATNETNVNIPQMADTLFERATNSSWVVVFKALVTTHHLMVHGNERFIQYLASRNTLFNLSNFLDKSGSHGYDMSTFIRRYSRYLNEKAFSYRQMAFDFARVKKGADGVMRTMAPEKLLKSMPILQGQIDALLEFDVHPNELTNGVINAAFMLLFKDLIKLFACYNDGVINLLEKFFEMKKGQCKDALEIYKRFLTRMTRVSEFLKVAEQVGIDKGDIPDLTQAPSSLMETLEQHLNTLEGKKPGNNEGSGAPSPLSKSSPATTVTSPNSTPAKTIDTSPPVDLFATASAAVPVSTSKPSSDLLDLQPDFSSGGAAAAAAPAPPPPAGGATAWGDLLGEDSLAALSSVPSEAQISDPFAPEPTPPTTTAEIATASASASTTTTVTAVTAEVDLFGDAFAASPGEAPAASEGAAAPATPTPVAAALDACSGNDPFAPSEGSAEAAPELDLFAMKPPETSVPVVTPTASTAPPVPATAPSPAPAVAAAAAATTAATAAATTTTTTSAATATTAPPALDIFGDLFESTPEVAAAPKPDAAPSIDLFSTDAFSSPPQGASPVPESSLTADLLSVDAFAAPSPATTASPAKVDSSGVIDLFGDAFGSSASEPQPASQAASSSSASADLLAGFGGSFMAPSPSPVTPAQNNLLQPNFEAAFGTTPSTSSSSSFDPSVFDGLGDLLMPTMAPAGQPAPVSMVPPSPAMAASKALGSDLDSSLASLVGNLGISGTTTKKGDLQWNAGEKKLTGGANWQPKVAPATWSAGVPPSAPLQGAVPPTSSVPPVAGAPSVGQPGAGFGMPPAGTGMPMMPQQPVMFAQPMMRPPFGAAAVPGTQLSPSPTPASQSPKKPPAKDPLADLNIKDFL
UniProt O60749: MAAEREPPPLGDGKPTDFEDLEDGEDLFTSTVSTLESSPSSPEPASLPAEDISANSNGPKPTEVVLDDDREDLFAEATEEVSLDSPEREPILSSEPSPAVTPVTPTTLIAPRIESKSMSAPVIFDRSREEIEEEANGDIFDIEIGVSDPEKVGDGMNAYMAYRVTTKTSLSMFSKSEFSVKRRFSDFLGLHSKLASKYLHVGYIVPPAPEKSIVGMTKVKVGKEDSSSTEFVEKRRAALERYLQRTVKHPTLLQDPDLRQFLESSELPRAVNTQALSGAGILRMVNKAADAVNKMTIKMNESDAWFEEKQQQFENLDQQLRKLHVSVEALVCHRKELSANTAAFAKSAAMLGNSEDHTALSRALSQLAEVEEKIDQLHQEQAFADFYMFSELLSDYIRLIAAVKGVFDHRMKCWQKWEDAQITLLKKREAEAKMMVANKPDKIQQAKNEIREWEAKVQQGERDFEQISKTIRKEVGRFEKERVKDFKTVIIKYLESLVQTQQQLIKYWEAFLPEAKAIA
UniProt B2RUZ4: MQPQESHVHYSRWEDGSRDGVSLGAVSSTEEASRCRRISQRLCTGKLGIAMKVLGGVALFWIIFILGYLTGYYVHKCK
UniProt P08294: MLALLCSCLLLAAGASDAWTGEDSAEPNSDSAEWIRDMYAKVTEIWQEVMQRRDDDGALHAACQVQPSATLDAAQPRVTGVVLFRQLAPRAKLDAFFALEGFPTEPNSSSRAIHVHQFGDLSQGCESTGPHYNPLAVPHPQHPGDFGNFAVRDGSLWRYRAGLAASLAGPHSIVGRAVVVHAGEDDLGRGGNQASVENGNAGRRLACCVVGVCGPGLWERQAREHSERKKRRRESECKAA
UniProt O75971: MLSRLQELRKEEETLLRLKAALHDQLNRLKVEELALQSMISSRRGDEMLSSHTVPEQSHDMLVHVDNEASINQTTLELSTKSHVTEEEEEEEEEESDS

Assays:
Assay in all cases: log2 fold change, soluble protein after heating vs DMSO (PISA); higher = thermal stabilisation; K562 cells, 10 uM, 30 min; active = over 0.2 and 3.5 SD of the protein, either way, in both replicates (recomputed)
[1] = compound: C1=CC=C(C=C1)[C@H](COC2=CC3=C(C=C2)NC(=O)N3)NC(=O)C4=CC=CN(C4=O)CC5=CC(=C(C=C5)F)F
How it was run: (§1)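 K562 cells at 2×10^6 cells/mL were treated with 10 μM compound for 30 min. Aliquots were heated for 3 min across 48°C-58°C, pooled, and extracted in PBS with 0.5% NP-40 at 4°C; soluble protein was the supernatant after 21,000xg for 90 min. Soluble protein was quantified by TMTpro 16plex LC-MS/MS with channel sums equalised, and reported as log2 fold change in thermal stability against DMSO controls, with values from duplicates.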

[2] = compound: CC1=C(SC2=C1C(=N[C@H](C3=NN=C(N32)C)CC(=O)N)C4=CC=C(C=C4)Cl)C
How it was run: as §1

[3] = compound: CC1=C2C(=CC=C1)N=C(N(C2=O)C3=CC=CC=C3C)CN4C=NC5=C(N=CN=C54)N
How it was run: as §1

[4] = compound: Cc1sc2c(c1C)C(c1ccc(Cl)cc1)=N[C@@H](CC(=O)OC(C)(C)C)c1nnc(C)n1-2
How it was run: as §1

[5] = compound: c1ccc([C@@H]2C[C@H]2NC2CCNCC2)cc1
How it was run: as §1

Measured: log2 fold change

SNX15 (UniProt Q9NRS6)
inactive: [1] 0.065 | [2] -0.032 | [3] 0.141 | [4] 0.279 | [5] -0.081

SMAD2 (UniProt Q15796)
inactive: [1] -0.014 | [2] 0.022 | [3] 0.056 | [4] -0.02 | [5] -0.066

SMARCC2 (UniProt Q8TAQ2)
inactive: [1] -0.118 | [2] 0.016 | [3] 0.033 | [4] -0.018 | [5] -0.072

SNRPD1 (UniProt P62314)
inactive: [1] 0.007 | [2] 0.045 | [3] -0.004 | [4] 0.071 | [5] 0.049

SLC7A6 (UniProt Q92536)
inactive: [1] -0.063 | [2] 0.023 | [3] 0.053 | [4] 0.012 | [5] 0.06

SNRNP40 (UniProt Q96DI7)
inactive: [1] 0.054 | [2] -0.023 | [3] 0.007 | [4] 0.071 | [5] 0.022

SMC2 (UniProt O95347)
inactive: [1] -0.024 | [2] 0.008 | [3] 0.031 | [4] 0.031 | [5] -0.015

SNRPF (UniProt P62306)
inactive: [1] -0.053 | [2] -0.065 | [3] -0.224 | [4] 0.109 | [5] 0.098

SOD1 (UniProt P00441)
inactive: [1] 0.028 | [2] 0.111 | [3] 0.041 | [4] -0.005 | [5] 0.039

SPA17 (UniProt Q15506)
inactive: [1] 0.051 | [2] 0.083 | [3] 0.053 | [4] 0.029 | [5] -0.01

2 consecutive records already listed, quoted:
SOD1 (UniProt P00441)
inactive: [1] 0.028 | [2] 0.111 | [3] 0.041 | [4] -0.005 | [5] 0.039

SPA17 (UniProt Q15506)
inactive: [1] 0.051 | [2] 0.083 | [3] 0.053 | [4] 0.029 | [5] -0.01

More results

SMDT1 (UniProt Q9H4I9)
inactive: [1] 0.031 | [2] 0.018 | [3] -0.081 | [4] -0.019 | [5] 0.024

SNRPA (UniProt P09012)
inactive: [1] 0.088 | [2] -0.036 | [3] -0.037 | [4] 0.123 | [5] 0.059

SORT1 (UniProt Q99523)
inactive: [1] 0.029 | [2] -0.01 | [3] -0.03 | [4] 0.027 | [5] 0.009

SNF8 (UniProt Q96H20)
inactive: [1] -0.024 | [2] 0.055 | [3] 0.013 | [4] 0.011 | [5] 0.064

SNTA1 (UniProt Q13424)
inactive: [1] 0.023 | [2] 0.06 | [3] 0.058 | [4] 0.118 | [5] 0.043

SPAG5 (UniProt Q96R06)
inactive: [1] -0.099 | [2] -0.015 | [3] -0.001 | [4] 0.18 | [5] -0.083

SMAD9 (UniProt O15198)
inactive: [1] -0.104 | [2] 0.094 | [3] -0.001 | [4] 0.076 | [5] -0.054

SLC7A6OS (UniProt Q96CW6)
inactive: [1] -0.026 | [2] -0.043 | [3] 0.03 | [4] 0.012 | [5] 0.032

SNAP91 (UniProt O60641)
inactive: [1] 0.051 | [2] 0.011 | [3] -0.121 | [4] -0.023 | [5] 0.02

SNX2 isoform 2 (UniProt O60749)
inactive: [1] 0.092 | [2] 0.217 | [3] 0.094 | [5] 0.066

SMIM1 (UniProt B2RUZ4)
inactive: [1] 0.204 | [2] 0.131 | [4] 0.119 | [5] -0.055

SLC9A6 isoform 3 (UniProt Q92581)
inactive: [1] -0.057 | [2] 0.003 | [4] -0.005 | [5] 0.089

SOD3 (UniProt P08294)
inactive: [2] 0.007 | [3] 0.037 | [4] -0.358 | [5] -0.025

SMCR8 (UniProt Q8TEV9)
inactive: [1] 0.037 | [2] 0.023 | [4] 0.115 | [5] -0.013

SNAPC5 (UniProt O75971)
inactive: [1] 0.078 | [3] -0.02 | [4] -0.237
